Source: patent US8173649B2, “Glucokinase activator” (Kyorin Pharmaceutical Co., Ltd., priority 2006, dated 2012)
Some results were stated once for a whole list of compounds, not compound by compound. For at least one compound, name, drawing or mass did not settle the structure.

Key:
[1] = In vitro liver microsome metabolic stability test, Method 1, human; type: in vitro ADME; conditions: human liver microsomes 1 mg/mL, 1 μM compound, 37° C., 5 min (Method 1)
[2] = In vitro liver microsome metabolic stability test, Method 1, murine; type: in vitro ADME, mice; conditions: mouse liver microsomes 1 mg/mL, 1 μM compound, 37° C., 5 min (Method 1)
ICR mice = experiment: Hypoglycemic activity test; type: in vivo; conditions: male ICR mice, 30 mg/kg orally after 2-hour fasting; mean of 0.5, 2 and 4 hours relative to Pre-value
Experimental: Using male 7- to 9-week-old ICR mice (Charles River Laboratories Japan), the effect of each test compound on the blood glucose levels was observed. Specifically, each compound was dissolved in a 60:40 mixture of Gelucire44/14 (Gatefosse) and PEG400 and was orally administered to the animals after a 2-hour fasting period (30 mg/kg, 10 mL/kg). Using a tube coated with dipotassium ethylenediamine tetraacetate, blood samples were collected from the tail vein immediately before administration (Pre-value), and 0.5, 2 and 4 hours after administration. The blood samples were centrifuged (4° C., 3,600 g, 3 min) to obtain plasma samples.
Each sample was diluted 5-fold with physiological saline and the blood glucose level was measured using glucose CII-test Wako (Wako Pure Chemical Industries). 10 μL each of one of the samples, physiological saline and a 100 mg/dL standard glucose solution (200 mg/dL standard glucose solution diluted two-fold with physiological saline) were placed in each well of a 96-well flat plate. […] Using a Lucy2 luminescence reader (Aloka), the measurements were taken at OD=492 nm. The decrease in the sigma glucose (mean decrease in the glucose levels at each blood collection point relative to the Pre-value) was determined from the decrease in the glucose level at each blood collection point relative to the Pre-value.

Compound: CS(=O)(=O)c1ccc(C(CC2CC(F)C(F)C2)C(=O)Nc2ncc(F)s2)cc1 (single isomer, unassigned; (-)) [compound 2, (−)-3-[(1α,3α,4α)-3,4-difluorocyclopentyl]-2-(4-(methylsulfonyl)phenyl)-N-(5-fluorothiazole-2-yl)propionamide]
- metabolic clearance [1]: ≤ 0.06 mL/min/mg protein
- metabolic clearance [2]: ≤ 0.06 mL/min/mg protein
- decrease in the sigma glucose level (ICR mice): ≥ 30%
